Where a SMILES comes first, the peptide text is derived from it.
test system: bacteria; conditions: the larger the value, the higher the cell selectivity
Method: The minimum inhibitory concentration (MIC) is a vital indicator for evaluating the antimicrobial activity of AMPs. The determination method refers to the improved method of Dong et al.. The strains to be tested were inoculated in Mueller Hinton broth (MHB) medium and cultured at 200 rpm and 37 °C until the logarithmic growth phase, and then the number of colonies was adjusted to approximately 10^5 CFU/mL. The 95 µL of bovine serum albumin (BSA) diluent (0.01% acetic acid and 0.2% BSA) and 5 µL of peptide (1.28 mM) were added to the first row of the 96-well plate, and 50 µL of BSA diluent was added to the other columns. After mixing in the first row, 50 µL of the mixture was aspirated and added to the second column and so on to the 11th row. After being cultured at 37 °C for 18–24 h, the minimum peptide concentration required to inhibit bacterial growth was the MIC value. All experiments were conducted at least three different times.
The safety of peptides is usually assessed by hemolytic activity. The collected blood of type B from healthy donor was centrifuged at 1000×g for 5 min to collect red blood cells. The red blood cells were then washed and resuspended in 10 mM PBS (pH 7.4). Fifty microliters of diluted red blood cells and an equal volume of peptide solution (2–128 µM) were incubated in a 96-well plate at 37 °C for 1 h. The red blood cell suspension treated with 0.1% Triton X-100 was used as a positive control (100% hemolysis), and untreated blood cell suspension was used as a negative control. The 96-well plate was centrifuged at 1000×g for 5 min at 4 °C, and then the supernatant was transferred to a new 96-well plate. The absorbance at OD570 was measured with a microplate reader.

Row | SMILES | SI (Selection index = MHC/GM)
1 | CC[C@H](C)[C@H](NC(=O)[C@H](CCCNC(=N)N)NC(=O)[C@H](CCC(N)=O)NC(=O)[C@@H](NC(=O)[C@@H](NC(=O)[C@H](CCCNC(=N)N)NC(=O)[C@H](CCCCN)NC(=O)[C@H](Cc1ccccc1)NC(=O)[C@H](CCCNC(=N)N)NC(=O)[C@H](CC(C)C)NC(=O)[C@H](Cc1ccccc1)NC(=O)[C@H](CCCNC(=N)N)NC(=O)[C@H](CCCCN)NC(=O)[C@@H](NC(=O)[C@H](CCCNC(=N)N)NC(=O)[C@H](CCC(N)=O)NC(=O)[C@@H](NC(=O)[C@@H](NC(=O)[C@H](CCCNC(=N)N)NC(=O)[C@H](CCCCN)NC(=O)[C@@H](N)Cc1ccccc1)[C@@H](C)CC)C(C)C)[C@@H](C)CC)[C@@H](C)CC)C(C)C)C(=O)N[C@@H](CCCCN)C(=O)N[C@@H](CCCNC(=N)N)C(=O)N[C@@H](Cc1ccccc1)C(=O)N[C@@H](CC(C)C)C(=O)N[C@@H](CCCNC(=N)N)C(=O)O [(FR)2] (H-FKRIVQRIKRFLRFKRIVQRIKRFLR-OH) | 9.87
2 | CC[C@H](C)[C@H](NC(=O)[C@H](CCCNC(=N)N)NC(=O)[C@H](CCC(N)=O)NC(=O)[C@@H](NC(=O)[C@@H](NC(=O)[C@H](CCCNC(=N)N)NC(=O)[C@H](CCCCN)NC(=O)[C@H](Cc1ccccc1)NC(=O)[C@H](C)NC(=O)[C@H](CCCCN)NC(=O)[C@H](C)NC(=O)[C@H](C)NC(=O)[C@H](C)NC(=O)[C@H](CCC(=O)O)NC(=O)[C@H](C)NC(=O)[C@H](CCCNC(=N)N)NC(=O)[C@H](CC(C)C)NC(=O)[C@H](Cc1ccccc1)NC(=O)[C@H](CCCNC(=N)N)NC(=O)[C@H](CCCCN)NC(=O)[C@@H](NC(=O)[C@H](CCCNC(=N)N)NC(=O)[C@H](CCC(N)=O)NC(=O)[C@@H](NC(=O)[C@@H](NC(=O)[C@H](CCCNC(=N)N)NC(=O)[C@H](CCCCN)NC(=O)[C@@H](N)Cc1ccccc1)[C@@H](C)CC)C(C)C)[C@@H](C)CC)[C@@H](C)CC)C(C)C)C(=O)N[C@@H](CCCCN)C(=O)N[C@@H](CCCNC(=N)N)C(=O)N[C@@H](Cc1ccccc1)C(=O)N[C@@H](CC(C)C)C(=O)N[C@@H](CCCNC(=N)N)C(=O)O [LA] (H-FKRIVQRIKRFLRAEAAAKAFKRIVQRIKRFLR-OH) | 4
3 | CC[C@H](C)[C@H](NC(=O)[C@H](CCCNC(=N)N)NC(=O)[C@H](CCC(N)=O)NC(=O)[C@@H](NC(=O)[C@@H](NC(=O)[C@H](CCCNC(=N)N)NC(=O)[C@H](CCCCN)NC(=O)[C@H](Cc1ccccc1)NC(=O)[C@H](CO)NC(=O)CNC(=O)CNC(=O)CNC(=O)CNC(=O)[C@H](CCCNC(=N)N)NC(=O)[C@H](CC(C)C)NC(=O)[C@H](Cc1ccccc1)NC(=O)[C@H](CCCNC(=N)N)NC(=O)[C@H](CCCCN)NC(=O)[C@@H](NC(=O)[C@H](CCCNC(=N)N)NC(=O)[C@H](CCC(N)=O)NC(=O)[C@@H](NC(=O)[C@@H](NC(=O)[C@H](CCCNC(=N)N)NC(=O)[C@H](CCCCN)NC(=O)[C@@H](N)Cc1ccccc1)[C@@H](C)CC)C(C)C)[C@@H](C)CC)[C@@H](C)CC)C(C)C)C(=O)N[C@@H](CCCCN)C(=O)N[C@@H](CCCNC(=N)N)C(=O)N[C@@H](Cc1ccccc1)C(=O)N[C@@H](CC(C)C)C(=O)N[C@@H](CCCNC(=N)N)C(=O)O [LG] (H-FKRIVQRIKRFLRGGGGSFKRIVQRIKRFLR-OH) | 32
